Experimental data published in PMC12094168.
No constants are given. Whether binding was seen depends on the method and setting. Binding seen in cells or lysates may run through a third protein. Some results given as binding are weak or reduced against the parent protein; the word gives no strength. Each block holds one substance with its values, some of them ahead of it.

The chains behind the UniProt entries cited, without tags or fusion partners.
UniProt P19474: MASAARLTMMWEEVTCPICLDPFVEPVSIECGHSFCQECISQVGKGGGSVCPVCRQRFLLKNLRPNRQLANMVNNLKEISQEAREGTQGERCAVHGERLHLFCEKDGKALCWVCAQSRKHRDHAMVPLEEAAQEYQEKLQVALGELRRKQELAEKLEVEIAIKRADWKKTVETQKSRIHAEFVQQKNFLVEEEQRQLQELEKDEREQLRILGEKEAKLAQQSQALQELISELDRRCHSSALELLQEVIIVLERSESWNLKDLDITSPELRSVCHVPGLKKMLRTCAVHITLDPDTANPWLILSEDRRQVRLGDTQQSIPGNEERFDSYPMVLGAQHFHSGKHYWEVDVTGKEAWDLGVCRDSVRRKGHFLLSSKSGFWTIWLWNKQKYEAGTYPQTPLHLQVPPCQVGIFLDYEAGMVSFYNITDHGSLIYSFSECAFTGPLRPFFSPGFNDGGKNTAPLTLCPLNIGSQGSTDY
UniProt P13378: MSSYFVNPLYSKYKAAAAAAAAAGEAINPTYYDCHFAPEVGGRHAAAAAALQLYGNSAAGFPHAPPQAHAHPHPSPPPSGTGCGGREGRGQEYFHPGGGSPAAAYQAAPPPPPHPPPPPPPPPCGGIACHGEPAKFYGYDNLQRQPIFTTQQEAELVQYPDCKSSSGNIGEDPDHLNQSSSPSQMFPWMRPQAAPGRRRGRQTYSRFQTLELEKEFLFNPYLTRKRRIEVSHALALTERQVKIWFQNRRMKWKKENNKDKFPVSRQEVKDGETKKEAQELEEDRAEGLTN

Key:
[1] = target: TRIM21 (tripartite motif containing 21), endogenous (human (endogenous in CPT MSCs)) (UniProt P19474); experiment: co-IP; endogenous proteins in CPT MSCs; RIPA lysate incubated with antibody (anti-HOXD8 for immunoprecipitation, IgG control) overnight at 4°C, protein A/G beads 4 h, western blot
[2] = target: Flag-TRIM21 (tripartite motif containing 21) (UniProt P19474); experiment: co-IP; 293 T cells overexpressing Flag-TRIM21 and Myc-HOXD8; RIPA lysate incubated with antibody (anti-Flag, anti-Myc or IgG control) overnight at 4°C, protein A/G beads 4 h, western blot
[3] = target: Myc-HOXD8 (homeobox gene D8) (UniProt P13378); experiment: as above
[4] = target: HOXD8 (homeobox gene D8), endogenous (human (endogenous in CPT MSCs)) (UniProt P13378); experiment: co-IP; endogenous proteins in CPT MSCs; RIPA lysate incubated with antibody (anti-HOXD8 for immunoprecipitation, IgG control) overnight at 4°C, protein A/G beads 4 h, western blot

binding [1]: binds
Substance: HOXD8 (homeobox gene D8), endogenous (from UniProt P13378 1-290)

binding [2]: binds
Substance: Myc-HOXD8 (homeobox gene D8) (from UniProt P13378 1-290)

binding [3]: binds
Substance: Flag-TRIM21 (tripartite motif containing 21) (from UniProt P19474 1-475)

binding [4]: binds
Substance: TRIM21 (tripartite motif containing 21), endogenous (from UniProt P19474 1-475)
